Reference: PubChem BioAssay AID1671195 (Yale University, 2021)
This is an unselected part of about 22,000 reagents tested. In the full data, about 1,510 (6.9%) are marked active. 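Active includes knockdowns raising or lowering LDL uptake; positive z-scores mean more uptake, negative mean less.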 A number with no mark means an inactive call. No sequences are given here.

Aim: 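Genes whose knockdown alters LDL uptake in liver cancer cells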 (primary screen)
Cells: human Huh7 hepatoma cells
Knock-down reagent: siRNA pool against human genes, 18 nM
Timing: about 2 to 2.5 days of knockdown, then 8 h LDL uptake
Treatment: DiI-labelled LDL at 30 µg/ml for 8 h, in lipoprotein-deficient serum medium
Measurement: 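Fluorescent LDL signal imaged in cells, scaled to the plate median, robust z-score for each replicate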
Reading the numbers: robust z-score: higher = more LDL uptake after knockdown
Call rule: 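a gene counts as active if at least two replicate z-scores exceed ±2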

no.	Gene	robust z-score, replicate 1	robust z-score, replicate 2	robust z-score, replicate 3
1	ZNF451	0.0468	-0.0232	0.415
2	ZPBP	-0.482	-0.765	-1.09
3	CIMAP3	-0.928	-0.868	-0.654
4	AKR7L	0.229	0.141	0.159
5	C9orf152	0.171	0.461	0.756
6	ATP1A1	2.12	1.45	0.969
7	XAB2	-0.73	-0.711	-1.12
8	FREM1	0.362	1.69	0.891
9	CCDC12	0.709	0.69	-0.168
10	SDR9C7	-0.703	-1.07	-0.459
11	HSPC047 (retired record)	0.514	1.04	1.1
12	THSD4	-1.3	-1.41	-1.27
13	TAS2R45	-0.288	-0.153	-0.456
14	LANCL1	0.469	0.198	1.16
15	PI3	-0.387	-0.573	-0.558
16	FNDC8	-0.52	-1.37	-0.585
17	SLC38A10	-0.0313	-0.148	0.389
18	KIFAP3	0.1	0.64	0.223
19	ZNF43	-1.75	-1.6	-1.9
20	STAG2	0.0705	-1.28	0.636
21	LOC441112 (retired record)	0.36	-0.0934	-0.297
22	ZW10	0.282	-0.00743	0.146
23	IFT56	-0.121	-0.0156	-0.0243
24	UROC1	-0.507	-0.0856	-1.27
25	ABCC11	0.961	0.927	0.604
26	RPL3	-1.74	-1.32	-1.76
27	LOC388587 (retired record)	0.0673	-0.00507	0.383
28	RGS18	1.01	1.09	1.02
29	PCOLCE	-0.35	-1.46	-0.413
30	LYPLA1	1.52	2.29	1.6
31	TUBA1C	2.62	0.203	-0.248
32	BPHL	1.31	1.7	2.79
33	POLQ	-1.05	-0.973	-0.753
34	PRSS38	-1.29	-0.58	-1.04
35	LOC442382	-1.72	-1.62	-1.36
36	NAAA	1.08	1.02	1.12
37	SLC35F3	-1.26	-0.508	-0.771
38	CDADC1	-1.15	-1.31	-1.49
39	PAM16	-0.0831	-0.31	-2.53
40	A1BG	0.466	-0.719	-0.774
41	CDKL5	0.708	0.344	1.27
42	PAK5	-1.13	-0.0475	-1.36
43	DDX19B	-0.926	-1.01	-1.02
44	CENPK	-1.24	-0.784	-0.667
45	GSTA2	-0.723	1.03	-0.6
46	MANBA	-0.101	-0.379	-0.215
47	ZNRD2	0.199	-0.357	-0.752
48	AZGP1	1.67	1.58	2.94
49	LOC151261 (retired record)	0.959	0.462	0.493
50	CNST	0.599	0.893	1.35
51	CUL2	0.81 (active)	4.52	2.49
52	KCNMB3	0.694	-0.256	0.733
53	ADH6	0.55	0.359	0.22
54	ZNF780A	-0.159	-0.18	0.157
55	FOXD2	0.201	0.419	0.731
56	CASP4	0.72	0.262	-0.0588
57	TRMT10B	-1.81	-1.69	-1.06
58	SMAGP	0.837	0.163	-0.832
59	BET1	-0.387	-0.415	-0.273
60	TLN1	0.123	0.582	1.12
61	SPRYD7	-0.151	0.0371	-0.28
62	MAPK7	-1.4	-1.49	-1.18
63	H2AZ1	0.115	-0.287	0.033
64	TRIM24	-1.85	-2.22	-1.71
65	C1orf146	0.216	0.14	0.0344
66	CELF2-AS2	-1.31	-0.927	-0.947
67	OR8B4	0.639	0.46	0.418
68	KIF21A	-1.21	-0.213	-1.34
69	SRSF9	0.206	0.472	0.658
70	CDC40	1.31	-0.438	-1.12
71	HK3	-0.41	0.167	0.457
72	OSBPL6	-0.0458	-1.44	-1.19
73	GALNTL6	-0.979	-1.06	-0.622
74	ANP32B	2.99 (active)	2.65	2.25
75	CFAP298	-1.34	-0.243	-0.299
76	LOC441833 (retired record)	-0.649	-0.675	-0.793
77	EMID1	-0.184	-0.09	0.624
78	MAGT1	-0.0682	0.356	1.36
79	ZNF410	-0.734	-0.518	-0.372
80	HEXIM2	0.973	1.35	1.47
81	LOC440885 (retired record)	-0.352	-0.435	-0.279
82	QPCT	1.81	1.76	1.57
83	ATL3	2.29 (active)	3.84	2.04
84	C1D	0.459	0.501	-0.243
85	BACC1	2.24 (active)	2.61	1.38
86	SPHK1	0.26	-0.396	-0.165
87	SAMD13	-0.722	0.224	-0.769

Only “robust z-score, replicate 1” (5 entries from above):
FOXD2 = 0.201
CASP4 = 0.72
TRMT10B = -1.81
SMAGP = 0.837
BET1 = -0.387
